In article PMC11903765, “ARR1 and AHP interactions in the multi-step phosphorelay system” (Frontiers in Plant Science, 2025):
No constants are given. Whether binding was seen depends on the method and setting. Sequences can lack the tags named with a protein.

Molecular target: T1, AHP1 (Arabidopsis histidine-containing phosphotransfer protein 1), full length (Arabidopsis thaliana), Q9ZNV9
T1 chain: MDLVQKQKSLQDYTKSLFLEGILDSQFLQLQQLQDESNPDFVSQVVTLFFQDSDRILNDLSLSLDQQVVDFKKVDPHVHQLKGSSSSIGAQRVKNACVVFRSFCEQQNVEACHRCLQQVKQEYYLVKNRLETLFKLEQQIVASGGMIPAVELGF
Test: crystal structure; complex from mixing 1 ARR1 : 1.5 AHP1, purified by SEC; crystals from Morpheus G11, pH 8.5, 32.5 mg/mL; 2.9 Å; two complexes in the asymmetric unit; both purified
Details: remark: other sources report otherwise

binding: no binding
B1: AHP1 (Arabidopsis histidine-containing phosphotransfer protein 1), full length (natural protein, Arabidopsis thaliana, UniProt Q9ZNV9 1-154, looked up)
chain: MDLVQKQKSLQDYTKSLFLEGILDSQFLQLQQLQDESNPDFVSQVVTLFFQDSDRILNDLSLSLDQQVVDFKKVDPHVHQLKGSSSSIGAQRVKNACVVFRSFCEQQNVEACHRCLQQVKQEYYLVKNRLETLFKLEQQIVASGGMIPAVELGF
notes: AHP1, Arabidopsis thaliana, UniProt Q9ZNV9, full-length protein cloned from A. thaliana cDNA into pMCSG53; Unphosphorylated; source: E. coli BL21 Gold, purified (Ni-NTA, TEV digestion, second Ni-NTA, SEC)
